The results are deposited in PubChem (AID1159506; NCATS, 2015).

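Luminescence from an EWS-FLI1 target-promoter (NR0B1) reporter, set against a CMV-promoter reporter, two days after silencing single genes in TC32 Ewing sarcoma cells.
Each siRNA was applied at 20 nM.
A z-score of the log NR0B1-over-CMV signal, less the median of siRNAs with the same seed; more negative means a stronger specific loss of the NR0B1 reporter.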

This is part of the screen; most of the strongest results are not listed here.
Sequences are the guide (antisense) strand, without overhang.

siRNA,gene,seed-corrected z-score
AUGGUUGUCACAGAACAGG,EDC4,-1.641
UGACGAUAGAGAUGUAGUC,LRRC8A,0.6407
UUCGUUCCGAAGAAGGAGA,SCAMP5,-0.4427
UAGAGUGCAUUUCAAUUUC,KDSR,0.05456
AGGUGUUUCAUAUAAUUCU,CCL13,0.6244
UAUGUAGCAUGGGACAUGC,OR51I2,-0.139
UGACAAUCUUCUCCUGUGG,CYP1A2,-1.127
UCUCGUAACAGAACUCCUC,DOC2B,0.1244
UCUCCGAAAUGCUAAAGCC,RPF1,0.4751
UAUAGAUUUUCCUUUAGCC,AADAC,0.6707
UCUACAUACUCCAAAAGCC,ZNF529,-0.0596
UCAUCUAAUAGGAACACUG,LONP2,-0.2971
UUUUAUUUUAGAGACGGUG,RPL28,0.442
UCUGUUCGCAGGUCUGUCU,RND1,-0.1637
AUGGUAGUGACAACUGUGC,KCNK16,-1.179
UCUAGCUCUAUGUCUAUCC,RNF13,1.609
UUUCAUCCCUCUCACGUGC,SNW1,0.3434
AUACGCUUUAGCAUGAUAG,RBM6,-0.1851
UACAUUAUCAUGUGGGAAG,ASB8,0.4151
UAAAUGAAGGUGCAUACAC,WDR82,-0.8938
UUAUCGCUAUGACAAAUGC,ANO4,0.2671
UAUAGAUUUGUGCAAUAUC,UBE2D1,-0.03779
UAAUCGUUGCGUCUGUAGC,CLK2,0.1517
UCUGAUAAAUGCUCGACCG,KIAA1217,0.3624
UCACUUUCCCGUCCAGCUG,GZMM,-0.01825
UGGCCUUUAGCUUUGCCUC,ENSA,-1.205
UUGAUGCCGAUGUACAGCC,ABCD4,-1.603
UGUUGUUUCAUGCAGAUCU,VPS16,0.4439
UUCAGGACAAUGUAUGCUG,LRRC37B,0.1273
UCGUUGUCGAAGAAGAUCC,MROH2A,-1.494
UCCGCAAUCACUGAGCAGU,MRPL53,0.3385
UGAUGGUCCAGUUCUUCCG,CDH4,-0.964
UGGUAAACCAAUAAAUUGG,C1orf229,0.4104
UUCUUUACCACAGAUUCCA,HGS,0.3509
UCAGUAUCCAUUUCUACAA,ATR,0.4282
UACAGUAGAGUUGUGGUGC,ETNK1,0.2587
UGCUAUUCCAUGUAUGUCA,KLK6,-0.4488
UCGAUUGCAAAGUAAUACC,CACNA2D1,-0.3696
UUAGGGUAGAGGUAGACCG,ACAN,0.5616
AUAUGAUCAGGGUAGUAUC,TMTC3,0.1595
AAUGCUCUUCGGGUAGUCC,ARHGAP20,-0.7906
UGAGGAACUUGUGAAGUUC,RAB31,-0.8655
UUCUCUGACAGCAUUUGCU,TGIF2LX,0.3199
AAAGUUCAGCCAUGUCAUG,FAM132A,0.403
UAUUUUCCACCGCCCAUCG,RPS18P12,1.629
AGUAGGAUCAGGUAGUCGG,GPR152,-1.391
UGUUGAGUUGGUCCAGCCC,B4GALNT1,1.875
UAUUUGGUUUGCAAUGGUG,KCNQ5,0.9571
ACUGAGAACAGGAAUAAGG,ZNF200,0.3314
UUAAUGAUUUCUCGAAUCG,TFB1M,0.06615
UACCAUAUCGCAUAAUUGC,CHD4,0.7874
AUUGCGUCCAUUUAUCUCC,MBNL1,-0.2493
AUUGUGAUCACUGGAGGUG,SLED1,0.3078
AGACUUACAGGAUUUGCAG,FXYD7,0.5793
UCAUGUAGAGUUGCGCACC,PSMA3,1.126

3 of the entries, repeated:

| siRNA | gene | seed-corrected z-score |
|---|---|---|
| `UGUUGUUUCAUGCAGAUCU` | VPS16 | 0.4439 |
| `UAUGUAGCAUGGGACAUGC` | OR51I2 | -0.139 |
| `UUUCAUCCCUCUCACGUGC` | SNW1 | 0.3434 |